Test results: paper PMC5833644
No constants are given. Whether binding was seen depends on the method and setting. For some assays here: In cells and extracts the contact can be indirect. Some results given as binding are weak or reduced against the parent protein; the word gives no strength.

Sequences of proteins named here, by UniProt entry; tags and fusion partners are left off.
UniProt P11166: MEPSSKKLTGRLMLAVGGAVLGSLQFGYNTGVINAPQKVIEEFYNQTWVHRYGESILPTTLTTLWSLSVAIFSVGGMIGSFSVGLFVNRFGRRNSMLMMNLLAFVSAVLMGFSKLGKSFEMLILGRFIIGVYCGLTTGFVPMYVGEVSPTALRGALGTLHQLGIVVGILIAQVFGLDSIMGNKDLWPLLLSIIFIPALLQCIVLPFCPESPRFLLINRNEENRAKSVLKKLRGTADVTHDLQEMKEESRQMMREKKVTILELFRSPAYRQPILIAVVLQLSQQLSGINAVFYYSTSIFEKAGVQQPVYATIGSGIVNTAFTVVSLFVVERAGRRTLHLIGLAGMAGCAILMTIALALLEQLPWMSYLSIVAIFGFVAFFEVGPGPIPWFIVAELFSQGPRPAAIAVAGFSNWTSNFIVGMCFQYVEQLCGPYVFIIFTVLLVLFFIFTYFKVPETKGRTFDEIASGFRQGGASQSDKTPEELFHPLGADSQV

Tests used:
[1] = target: T1, MUC13 (human (endogenous in HPAF-II and AsPC1)) (UniProt Q9H3R2); assay: proximity ligation; in situ PLA (Duolink Red Starter kit) in HPAF-II cells; anti-mouse minus and anti-rabbit plus probes; confocal microscopy
T1 sequence: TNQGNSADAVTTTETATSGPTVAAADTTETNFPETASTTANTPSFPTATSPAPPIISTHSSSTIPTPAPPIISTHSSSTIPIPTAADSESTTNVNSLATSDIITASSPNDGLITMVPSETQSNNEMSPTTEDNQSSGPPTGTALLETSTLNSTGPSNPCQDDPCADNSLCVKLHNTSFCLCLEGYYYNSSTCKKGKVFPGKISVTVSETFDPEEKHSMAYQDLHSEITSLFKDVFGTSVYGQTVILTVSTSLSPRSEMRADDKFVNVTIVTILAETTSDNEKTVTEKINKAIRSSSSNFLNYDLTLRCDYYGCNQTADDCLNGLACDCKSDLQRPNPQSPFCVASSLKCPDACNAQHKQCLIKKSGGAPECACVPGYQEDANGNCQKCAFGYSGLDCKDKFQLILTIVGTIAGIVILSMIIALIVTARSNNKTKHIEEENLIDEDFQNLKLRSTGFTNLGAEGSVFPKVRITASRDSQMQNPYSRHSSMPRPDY

[2] = target: T1, MUC13 (human (endogenous in HPAF-II and AsPC1)); assay: co-IP; reciprocal co-immunoprecipitation from whole-cell lysates of AsPC1 and HPAF-II cells; 500 µg of protein incubated with antibodies at 4 °C overnight
[3] = target: T1, MUC13 (human (endogenous in HPAF-II and AsPC1)); assay: condition: only cells treated with sulfasalazine (0.9 mM) for 24 h; co-IP; reciprocal co-immunoprecipitation from lysates of HPAF-II cells treated with sulfasalazine (0.9 mM) for 24 h
[4] = target: T1, MUC13 (human (endogenous in HPAF-II and AsPC1)); assay: co-capping assay; HPAF-II and AsPC1 cells incubated with NHS-Rhodamine-labeled anti-MUC13 mAb (30 µg/ml) 1 h at 4 °C, plated at 37 °C for about 2 h, then stained for Glut-1 or α-tubulin; confocal microscopy

Substance	binding [1]	binding [2]	binding [3]	binding [4]
HER2 (from UniProt P04626 23-1255) (receptor)	binds	–	–	–
glucose transporter-1 (Glut-1) (from UniProt P11166 1-492)	binds	binds	no binding	binds
